Reference: paper doi:10.1101/2019.12.16.877498
Read-outs that look alike come from different tables or passages of the source. These are yes or no findings as the source states them, for the method shown. Binding seen in cells or lysates may run through a third protein. Some results given as binding are weak or reduced against the parent protein; the word gives no strength. For part of these data: Tags and fused reporters may be left off the sequences shown.

Amino acid sequences for entries named in this document (tags omitted).
UniProt Q8TDG2: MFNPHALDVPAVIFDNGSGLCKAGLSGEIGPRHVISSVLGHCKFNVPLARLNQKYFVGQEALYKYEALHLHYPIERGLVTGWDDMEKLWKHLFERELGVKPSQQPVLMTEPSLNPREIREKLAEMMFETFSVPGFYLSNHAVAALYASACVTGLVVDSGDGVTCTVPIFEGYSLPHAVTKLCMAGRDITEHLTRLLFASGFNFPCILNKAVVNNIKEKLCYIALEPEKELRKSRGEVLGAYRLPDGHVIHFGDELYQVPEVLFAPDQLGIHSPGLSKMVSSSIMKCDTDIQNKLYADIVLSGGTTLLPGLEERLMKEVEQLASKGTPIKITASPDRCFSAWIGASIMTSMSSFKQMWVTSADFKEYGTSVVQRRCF
UniProt O95816: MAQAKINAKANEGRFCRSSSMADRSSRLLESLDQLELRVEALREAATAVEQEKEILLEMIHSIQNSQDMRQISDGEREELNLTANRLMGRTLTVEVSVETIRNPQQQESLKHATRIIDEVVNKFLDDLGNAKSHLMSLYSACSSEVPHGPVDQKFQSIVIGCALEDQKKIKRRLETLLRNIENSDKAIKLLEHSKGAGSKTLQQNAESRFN
UniProt P50990: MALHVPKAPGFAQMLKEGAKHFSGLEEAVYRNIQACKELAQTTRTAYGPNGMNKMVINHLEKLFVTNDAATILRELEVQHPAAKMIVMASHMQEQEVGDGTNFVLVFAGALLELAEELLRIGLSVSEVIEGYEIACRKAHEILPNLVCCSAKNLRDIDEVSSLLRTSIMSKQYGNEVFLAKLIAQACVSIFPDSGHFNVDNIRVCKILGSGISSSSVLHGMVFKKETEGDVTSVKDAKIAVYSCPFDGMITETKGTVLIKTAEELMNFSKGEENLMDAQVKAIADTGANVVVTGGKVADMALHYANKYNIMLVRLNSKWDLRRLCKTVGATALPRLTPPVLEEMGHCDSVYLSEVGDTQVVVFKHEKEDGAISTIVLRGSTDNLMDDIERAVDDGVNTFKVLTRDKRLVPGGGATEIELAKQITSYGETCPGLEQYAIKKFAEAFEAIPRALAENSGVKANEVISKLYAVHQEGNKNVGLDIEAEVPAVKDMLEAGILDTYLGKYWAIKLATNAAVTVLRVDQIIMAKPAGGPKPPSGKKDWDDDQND
UniProt P11142: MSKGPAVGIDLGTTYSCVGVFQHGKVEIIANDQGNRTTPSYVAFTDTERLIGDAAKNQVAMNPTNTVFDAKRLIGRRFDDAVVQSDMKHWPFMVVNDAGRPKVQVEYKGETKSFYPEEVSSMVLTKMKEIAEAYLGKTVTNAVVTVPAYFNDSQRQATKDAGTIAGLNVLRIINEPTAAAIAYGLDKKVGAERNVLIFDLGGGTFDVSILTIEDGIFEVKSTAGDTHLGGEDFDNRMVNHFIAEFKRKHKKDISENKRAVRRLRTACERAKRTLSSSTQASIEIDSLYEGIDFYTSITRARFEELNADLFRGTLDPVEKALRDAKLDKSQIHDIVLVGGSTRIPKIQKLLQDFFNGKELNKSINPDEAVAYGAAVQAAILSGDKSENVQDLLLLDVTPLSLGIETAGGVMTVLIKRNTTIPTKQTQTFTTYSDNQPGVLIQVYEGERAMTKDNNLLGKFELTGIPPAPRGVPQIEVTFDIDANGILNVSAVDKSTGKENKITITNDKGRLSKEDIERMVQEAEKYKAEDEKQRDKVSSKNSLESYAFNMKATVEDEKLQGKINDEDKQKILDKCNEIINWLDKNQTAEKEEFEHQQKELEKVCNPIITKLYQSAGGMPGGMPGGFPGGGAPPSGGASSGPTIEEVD

T1: EHD4 tagged with V5 (UniProt Q9H223)
T1 sequence: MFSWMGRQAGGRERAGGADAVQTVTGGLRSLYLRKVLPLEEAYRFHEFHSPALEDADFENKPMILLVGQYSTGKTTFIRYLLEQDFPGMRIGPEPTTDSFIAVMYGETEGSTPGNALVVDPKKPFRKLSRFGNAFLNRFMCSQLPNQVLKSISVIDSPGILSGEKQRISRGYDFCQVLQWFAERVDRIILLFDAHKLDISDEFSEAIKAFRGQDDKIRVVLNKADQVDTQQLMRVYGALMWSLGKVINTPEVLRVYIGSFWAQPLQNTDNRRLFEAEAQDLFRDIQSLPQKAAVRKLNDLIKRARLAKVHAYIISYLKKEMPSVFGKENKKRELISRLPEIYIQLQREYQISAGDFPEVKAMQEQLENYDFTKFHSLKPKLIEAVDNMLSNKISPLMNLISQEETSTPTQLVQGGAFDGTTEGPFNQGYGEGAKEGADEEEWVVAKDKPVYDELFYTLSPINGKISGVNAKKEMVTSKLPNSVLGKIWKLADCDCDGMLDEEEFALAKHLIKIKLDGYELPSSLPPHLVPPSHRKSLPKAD


Columns and labels:
[1] = target: T1, EHD4 tagged with V5; assay: co-IP
[2] = target: Actin-Related Protein-Testis1 (ARP-T1), wild type, tagged with Myc-DDK (human) (UniProt Q8TDG2); assay: co-IP
[3] = target: Actin-Related Protein-Testis1 (ARP-T1), wild type, tagged with Myc-DDK (human) (UniProt Q8TDG2); assay: co-IP; remark: listed apart in the source
[4] = target: ARP-T1, endogenous (human (endogenous in hTERT-RPE1)) (UniProt Q8TDG2); assay: proximity ligation

| binding [2] | binding [3] | Molecule | other results |
| --- | --- | --- | --- |
|  |  | ARP-T1, endogenous (from UniProt Q8TDG2 1-376) | binding [1]: binds |
| binds |  | Bcl2-associated athanogen (BAG2) protein (from UniProt O95816 1-211) |  |
| binds |  | TCP8 (one of 8 subunits of chaperonin-containing T-complex) (from UniProt P50990 1-548) |  |
| binds |  | heat shock cognate 71 kDa protein (Hsc70) (from UniProt P11142 1-646) |  |
|  | binds | Septin9 (protein, UniProt Q9UHD8 1-586) MKKSYSGGTRTSSGRLRRLGDSSGPALKRSFEVEEVETPNSTPPRRVQTPLLRATVASSTQKFQDLGVKNSEPSARHVDSLSQRSPKASLRRVELSGPKAAEPVSRRTELSIDISSKQVENAGAIGPSRFGLKRAEVLGHKTPEPAPRRTEITIVKPQESAHRRMEPPASKVPEVPTAPATDAAPKRVEIQMPKPAEAPTAPSPAQTLENSEPAPVSQLQSRLEPKPQPPVAEATPRSQEATEAAPSCVGDMADTPRDAGLKQAPASRNEKAPVDFGYVGIDSILEQMRRKAMKQGFEFNIMVVGQSGLGKSTLINTLFKSKISRKSVQPTSEERIPKTIEIKSITHDIEEKGVRMKLTVIDTPGFGDHINNENCWQPIMKFINDQYEKYLQEEVNINRKKRIPDTRVHCCLYFIPATGHSLRPLDIEFMKRLSKVVNIVPVIAKADTLTLEERVHFKQRITADLLSNGIDVYPQKEFDEDSEDRLVNEKFREMIPFAVVGSDHEYQVNGKRILGRKTKWGTIEVENTTHCEFAYLRDLLIRTHMQNIKDITSSIHFEAYRVKRLNEGSSAMANGMEEKEPEAPEM |  |
|  | binds | Septin2 (protein, UniProt Q15019 1-361) MSKQQPTQFINPETPGYVGFANLPNQVHRKSVKKGFEFTLMVVGESGLGKSTLINSLFLTDLYPERVIPGAAEKIERTVQIEASTVEIEERGVKLRLTVVDTPGYGDAINCRDCFKTIISYIDEQFERYLHDESGLNRRHIIDNRVHCCFYFISPFGHGLKPLDVAFMKAIHNKVNIVPVIAKADTLTLKERERLKKRILDEIEEHNIKIYHLPDAESDEDEDFKEQTRLLKASIPFSVVGSNQLIEAKGKKVRGRLYPWGVVEVENPEHNDFLKLRTMLITHMQDLQEVTQDLHYENFRSERLKRGGRKVENEDMNKDQILLEKEAELRRMQEMIARMQAQMQMQMQGGDGDGGALGHHV | binding [4]: binds |
|  | binds | EHD4, endogenous (protein, UniProt Q9H223 1-541) MFSWMGRQAGGRERAGGADAVQTVTGGLRSLYLRKVLPLEEAYRFHEFHSPALEDADFENKPMILLVGQYSTGKTTFIRYLLEQDFPGMRIGPEPTTDSFIAVMYGETEGSTPGNALVVDPKKPFRKLSRFGNAFLNRFMCSQLPNQVLKSISVIDSPGILSGEKQRISRGYDFCQVLQWFAERVDRIILLFDAHKLDISDEFSEAIKAFRGQDDKIRVVLNKADQVDTQQLMRVYGALMWSLGKVINTPEVLRVYIGSFWAQPLQNTDNRRLFEAEAQDLFRDIQSLPQKAAVRKLNDLIKRARLAKVHAYIISYLKKEMPSVFGKENKKRELISRLPEIYIQLQREYQISAGDFPEVKAMQEQLENYDFTKFHSLKPKLIEAVDNMLSNKISPLMNLISQEETSTPTQLVQGGAFDGTTEGPFNQGYGEGAKEGADEEEWVVAKDKPVYDELFYTLSPINGKISGVNAKKEMVTSKLPNSVLGKIWKLADCDCDGMLDEEEFALAKHLIKIKLDGYELPSSLPPHLVPPSHRKSLPKAD | binding [4]: binds |
